Test results taken from paper doi:10.1101/2021.04.25.441346 (bioRxiv, 2021).
No constants are given. Whether binding was seen depends on the method and setting. In cells and extracts the contact can be indirect. Some entries that bind do so weakly or less than the wild type. Sequences can lack the tags named with a protein.

Target: T1, ARF19 BiFC fusion (nEYFP-ARF19 and cEYFP-ARF19) (Arabidopsis thaliana), Q8RYC8
T1 chain: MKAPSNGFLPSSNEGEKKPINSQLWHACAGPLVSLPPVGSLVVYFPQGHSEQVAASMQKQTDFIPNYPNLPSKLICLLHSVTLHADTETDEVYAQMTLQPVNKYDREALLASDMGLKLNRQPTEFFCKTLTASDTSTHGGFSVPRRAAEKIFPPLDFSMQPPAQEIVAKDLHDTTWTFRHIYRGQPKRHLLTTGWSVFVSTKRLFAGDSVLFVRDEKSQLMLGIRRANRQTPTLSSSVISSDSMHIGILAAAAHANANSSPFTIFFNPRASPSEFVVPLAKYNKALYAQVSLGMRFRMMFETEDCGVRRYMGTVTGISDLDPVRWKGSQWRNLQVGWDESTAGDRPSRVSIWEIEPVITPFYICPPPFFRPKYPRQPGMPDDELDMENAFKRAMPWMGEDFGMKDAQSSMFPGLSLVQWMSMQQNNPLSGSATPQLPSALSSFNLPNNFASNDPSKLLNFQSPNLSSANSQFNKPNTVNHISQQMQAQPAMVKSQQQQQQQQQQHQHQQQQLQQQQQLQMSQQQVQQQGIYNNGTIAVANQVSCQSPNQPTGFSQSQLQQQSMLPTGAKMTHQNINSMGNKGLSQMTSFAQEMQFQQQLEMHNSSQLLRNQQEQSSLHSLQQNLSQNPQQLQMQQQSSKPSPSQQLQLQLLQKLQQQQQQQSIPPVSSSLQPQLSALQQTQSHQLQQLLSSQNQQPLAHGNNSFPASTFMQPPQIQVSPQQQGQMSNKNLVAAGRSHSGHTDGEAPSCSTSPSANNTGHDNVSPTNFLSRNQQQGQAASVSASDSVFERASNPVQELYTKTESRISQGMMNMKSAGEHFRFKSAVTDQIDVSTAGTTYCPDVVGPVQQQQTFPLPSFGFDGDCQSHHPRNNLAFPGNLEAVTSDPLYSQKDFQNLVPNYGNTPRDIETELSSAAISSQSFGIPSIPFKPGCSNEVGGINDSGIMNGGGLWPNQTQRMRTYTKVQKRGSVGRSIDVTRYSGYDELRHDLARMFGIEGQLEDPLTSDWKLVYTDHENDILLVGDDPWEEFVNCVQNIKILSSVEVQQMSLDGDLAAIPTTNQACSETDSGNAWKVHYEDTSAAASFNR
Test: split reporter
Conditions: remark: other sources report otherwise

B1: ARF19 BiFC fusion (nEYFP-ARF19 and cEYFP-ARF19), Q8RYC8 1-1086 (protein)
chain: MKAPSNGFLPSSNEGEKKPINSQLWHACAGPLVSLPPVGSLVVYFPQGHSEQVAASMQKQTDFIPNYPNLPSKLICLLHSVTLHADTETDEVYAQMTLQPVNKYDREALLASDMGLKLNRQPTEFFCKTLTASDTSTHGGFSVPRRAAEKIFPPLDFSMQPPAQEIVAKDLHDTTWTFRHIYRGQPKRHLLTTGWSVFVSTKRLFAGDSVLFVRDEKSQLMLGIRRANRQTPTLSSSVISSDSMHIGILAAAAHANANSSPFTIFFNPRASPSEFVVPLAKYNKALYAQVSLGMRFRMMFETEDCGVRRYMGTVTGISDLDPVRWKGSQWRNLQVGWDESTAGDRPSRVSIWEIEPVITPFYICPPPFFRPKYPRQPGMPDDELDMENAFKRAMPWMGEDFGMKDAQSSMFPGLSLVQWMSMQQNNPLSGSATPQLPSALSSFNLPNNFASNDPSKLLNFQSPNLSSANSQFNKPNTVNHISQQMQAQPAMVKSQQQQQQQQQQHQHQQQQLQQQQQLQMSQQQVQQQGIYNNGTIAVANQVSCQSPNQPTGFSQSQLQQQSMLPTGAKMTHQNINSMGNKGLSQMTSFAQEMQFQQQLEMHNSSQLLRNQQEQSSLHSLQQNLSQNPQQLQMQQQSSKPSPSQQLQLQLLQKLQQQQQQQSIPPVSSSLQPQLSALQQTQSHQLQQLLSSQNQQPLAHGNNSFPASTFMQPPQIQVSPQQQGQMSNKNLVAAGRSHSGHTDGEAPSCSTSPSANNTGHDNVSPTNFLSRNQQQGQAASVSASDSVFERASNPVQELYTKTESRISQGMMNMKSAGEHFRFKSAVTDQIDVSTAGTTYCPDVVGPVQQQQTFPLPSFGFDGDCQSHHPRNNLAFPGNLEAVTSDPLYSQKDFQNLVPNYGNTPRDIETELSSAAISSQSFGIPSIPFKPGCSNEVGGINDSGIMNGGGLWPNQTQRMRTYTKVQKRGSVGRSIDVTRYSGYDELRHDLARMFGIEGQLEDPLTSDWKLVYTDHENDILLVGDDPWEEFVNCVQNIKILSSVEVQQMSLDGDLAAIPTTNQACSETDSGNAWKVHYEDTSAAASFNR
  binding: binds
